Data as given in the supplement of paper PMC12823440, “Inhibitors supercharge kinase turnover through native proteolytic circuits” (Nature, 2025).
Counter-ions that a name gives are not always drawn. This is one part of the list. The calls rarely recur for the same compound in another form.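 Kinases, fused to nanoluciferase, were expressed in K562 cells; luminescence was measured every 4 h from 2 to 18 h as percent of control (DMSO = 100%, positive control = 0%). A time point is decreased if signal falls significantly (2 sigma). Hits were called by the authors by a rule that is not shown; the count of time points alone does not decide it.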

Amino acid sequences for entries named in this document (tags omitted). A change or cut given only in a name is not applied to a line headed by its entry.
UniProt P28482, whole entry: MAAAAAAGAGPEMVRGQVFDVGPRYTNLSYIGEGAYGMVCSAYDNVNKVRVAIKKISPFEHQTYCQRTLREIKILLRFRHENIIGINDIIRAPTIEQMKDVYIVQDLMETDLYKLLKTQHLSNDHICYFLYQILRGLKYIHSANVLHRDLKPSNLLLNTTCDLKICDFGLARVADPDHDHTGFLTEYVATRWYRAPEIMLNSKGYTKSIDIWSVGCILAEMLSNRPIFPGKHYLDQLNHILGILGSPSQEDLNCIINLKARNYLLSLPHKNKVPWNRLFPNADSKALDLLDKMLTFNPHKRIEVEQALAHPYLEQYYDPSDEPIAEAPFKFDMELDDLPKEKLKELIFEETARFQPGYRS
UniProt P31152, whole entry: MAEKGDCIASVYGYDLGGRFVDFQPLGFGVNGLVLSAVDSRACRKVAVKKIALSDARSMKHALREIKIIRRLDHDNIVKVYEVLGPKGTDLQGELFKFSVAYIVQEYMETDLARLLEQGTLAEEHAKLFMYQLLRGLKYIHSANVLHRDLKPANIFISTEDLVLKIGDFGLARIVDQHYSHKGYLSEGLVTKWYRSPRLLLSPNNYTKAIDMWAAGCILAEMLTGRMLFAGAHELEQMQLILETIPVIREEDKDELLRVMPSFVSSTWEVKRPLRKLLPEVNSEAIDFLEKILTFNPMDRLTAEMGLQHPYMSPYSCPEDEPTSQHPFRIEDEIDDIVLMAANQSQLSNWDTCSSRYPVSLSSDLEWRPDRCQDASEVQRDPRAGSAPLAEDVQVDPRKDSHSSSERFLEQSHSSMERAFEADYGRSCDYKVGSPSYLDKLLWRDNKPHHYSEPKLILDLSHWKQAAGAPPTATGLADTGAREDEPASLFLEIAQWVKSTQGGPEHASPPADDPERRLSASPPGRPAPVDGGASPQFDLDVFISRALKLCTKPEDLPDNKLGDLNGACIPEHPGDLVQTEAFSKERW
UniProt P49137, whole entry, looked up: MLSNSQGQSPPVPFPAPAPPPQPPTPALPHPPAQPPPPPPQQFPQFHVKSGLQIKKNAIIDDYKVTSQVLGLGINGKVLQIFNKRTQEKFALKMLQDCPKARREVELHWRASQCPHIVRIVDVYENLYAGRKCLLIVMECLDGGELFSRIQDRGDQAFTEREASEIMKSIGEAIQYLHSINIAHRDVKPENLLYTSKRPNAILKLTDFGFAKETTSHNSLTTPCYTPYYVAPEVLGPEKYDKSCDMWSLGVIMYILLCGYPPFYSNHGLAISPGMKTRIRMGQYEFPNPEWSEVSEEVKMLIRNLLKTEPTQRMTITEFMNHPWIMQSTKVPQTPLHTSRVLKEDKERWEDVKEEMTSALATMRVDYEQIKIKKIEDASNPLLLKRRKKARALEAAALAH
UniProt Q9BUB5: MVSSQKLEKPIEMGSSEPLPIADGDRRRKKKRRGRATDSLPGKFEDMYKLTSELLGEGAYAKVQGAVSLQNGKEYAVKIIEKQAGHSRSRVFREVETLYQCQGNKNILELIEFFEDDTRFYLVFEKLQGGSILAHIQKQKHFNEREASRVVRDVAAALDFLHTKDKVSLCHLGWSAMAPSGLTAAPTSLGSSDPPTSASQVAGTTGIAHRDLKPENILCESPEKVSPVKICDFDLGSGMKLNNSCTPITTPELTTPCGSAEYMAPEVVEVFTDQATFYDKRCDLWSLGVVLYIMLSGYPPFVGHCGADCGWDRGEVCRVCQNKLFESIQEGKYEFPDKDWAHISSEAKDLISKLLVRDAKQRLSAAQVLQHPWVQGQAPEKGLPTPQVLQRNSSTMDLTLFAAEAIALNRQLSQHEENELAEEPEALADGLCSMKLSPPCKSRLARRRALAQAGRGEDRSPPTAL
UniProt Q16620, whole entry, looked up: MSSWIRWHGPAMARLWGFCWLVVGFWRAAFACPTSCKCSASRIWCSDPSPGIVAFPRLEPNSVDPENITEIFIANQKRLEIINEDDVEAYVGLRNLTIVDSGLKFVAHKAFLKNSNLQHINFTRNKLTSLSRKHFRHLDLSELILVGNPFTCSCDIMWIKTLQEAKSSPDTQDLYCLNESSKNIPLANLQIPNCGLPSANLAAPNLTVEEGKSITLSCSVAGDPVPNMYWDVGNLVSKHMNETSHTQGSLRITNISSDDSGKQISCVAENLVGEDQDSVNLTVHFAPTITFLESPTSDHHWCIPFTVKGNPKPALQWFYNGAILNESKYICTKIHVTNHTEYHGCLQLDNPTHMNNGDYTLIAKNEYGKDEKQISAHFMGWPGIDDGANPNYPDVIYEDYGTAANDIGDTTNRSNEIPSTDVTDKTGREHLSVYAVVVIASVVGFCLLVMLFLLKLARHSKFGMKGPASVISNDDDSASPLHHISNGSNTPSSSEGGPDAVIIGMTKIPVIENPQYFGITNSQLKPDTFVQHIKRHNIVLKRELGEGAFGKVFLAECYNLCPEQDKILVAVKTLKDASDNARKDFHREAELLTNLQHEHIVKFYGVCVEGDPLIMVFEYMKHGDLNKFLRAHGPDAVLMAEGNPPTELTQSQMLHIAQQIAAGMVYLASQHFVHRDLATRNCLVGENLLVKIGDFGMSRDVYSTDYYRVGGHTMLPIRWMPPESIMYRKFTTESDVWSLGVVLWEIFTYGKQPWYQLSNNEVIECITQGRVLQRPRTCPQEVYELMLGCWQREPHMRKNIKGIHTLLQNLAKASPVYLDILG
UniProt O96013: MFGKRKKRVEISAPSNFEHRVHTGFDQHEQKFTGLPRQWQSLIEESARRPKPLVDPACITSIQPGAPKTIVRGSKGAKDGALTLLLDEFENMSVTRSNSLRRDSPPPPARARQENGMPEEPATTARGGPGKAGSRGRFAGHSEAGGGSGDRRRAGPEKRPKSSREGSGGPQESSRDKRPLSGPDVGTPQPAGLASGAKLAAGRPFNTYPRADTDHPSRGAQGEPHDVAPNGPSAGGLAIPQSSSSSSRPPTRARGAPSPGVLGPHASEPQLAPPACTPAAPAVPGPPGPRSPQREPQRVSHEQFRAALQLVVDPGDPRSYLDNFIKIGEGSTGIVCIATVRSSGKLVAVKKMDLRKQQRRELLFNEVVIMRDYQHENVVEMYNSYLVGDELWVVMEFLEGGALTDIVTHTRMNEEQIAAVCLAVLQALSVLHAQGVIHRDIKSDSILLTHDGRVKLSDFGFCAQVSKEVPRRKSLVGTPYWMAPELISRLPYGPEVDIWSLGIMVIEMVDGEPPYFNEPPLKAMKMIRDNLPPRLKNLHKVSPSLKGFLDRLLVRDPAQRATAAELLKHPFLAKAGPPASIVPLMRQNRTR
UniProt Q96KB5: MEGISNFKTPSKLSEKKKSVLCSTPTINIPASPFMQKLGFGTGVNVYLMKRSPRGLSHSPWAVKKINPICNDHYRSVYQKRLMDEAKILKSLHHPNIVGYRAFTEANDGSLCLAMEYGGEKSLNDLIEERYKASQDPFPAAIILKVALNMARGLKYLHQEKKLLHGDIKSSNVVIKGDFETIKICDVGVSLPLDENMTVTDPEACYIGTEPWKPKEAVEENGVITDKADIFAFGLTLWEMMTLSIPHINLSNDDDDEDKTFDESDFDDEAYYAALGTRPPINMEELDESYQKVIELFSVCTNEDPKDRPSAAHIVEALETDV
UniProt P09619, whole entry: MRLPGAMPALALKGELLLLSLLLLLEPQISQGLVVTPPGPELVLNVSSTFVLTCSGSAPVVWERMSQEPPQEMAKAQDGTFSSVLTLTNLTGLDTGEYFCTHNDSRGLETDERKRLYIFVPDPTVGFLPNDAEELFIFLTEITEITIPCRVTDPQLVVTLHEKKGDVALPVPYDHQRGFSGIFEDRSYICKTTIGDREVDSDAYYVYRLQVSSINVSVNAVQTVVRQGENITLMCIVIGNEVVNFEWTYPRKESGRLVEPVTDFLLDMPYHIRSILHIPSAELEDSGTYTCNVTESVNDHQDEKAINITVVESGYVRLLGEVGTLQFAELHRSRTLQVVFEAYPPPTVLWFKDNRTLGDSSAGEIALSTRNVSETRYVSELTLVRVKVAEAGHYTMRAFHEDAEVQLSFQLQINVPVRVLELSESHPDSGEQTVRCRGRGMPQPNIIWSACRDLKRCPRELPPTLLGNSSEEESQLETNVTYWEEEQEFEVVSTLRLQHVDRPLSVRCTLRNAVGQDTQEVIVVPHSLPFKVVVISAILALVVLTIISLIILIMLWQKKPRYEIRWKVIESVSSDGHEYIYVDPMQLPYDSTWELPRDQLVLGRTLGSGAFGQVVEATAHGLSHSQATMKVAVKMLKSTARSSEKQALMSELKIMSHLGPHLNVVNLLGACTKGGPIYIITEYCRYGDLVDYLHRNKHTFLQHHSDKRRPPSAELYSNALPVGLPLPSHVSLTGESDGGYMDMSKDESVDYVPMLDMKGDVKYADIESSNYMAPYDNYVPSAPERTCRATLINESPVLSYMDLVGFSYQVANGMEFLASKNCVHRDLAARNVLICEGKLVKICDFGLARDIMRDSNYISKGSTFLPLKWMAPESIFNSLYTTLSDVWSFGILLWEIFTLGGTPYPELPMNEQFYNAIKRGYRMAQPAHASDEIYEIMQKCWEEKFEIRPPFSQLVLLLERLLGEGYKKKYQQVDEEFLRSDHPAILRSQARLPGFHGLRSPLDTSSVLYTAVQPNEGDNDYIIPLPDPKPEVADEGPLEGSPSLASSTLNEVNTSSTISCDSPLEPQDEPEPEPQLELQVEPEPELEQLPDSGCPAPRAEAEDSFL
UniProt Q15118, whole entry, looked up: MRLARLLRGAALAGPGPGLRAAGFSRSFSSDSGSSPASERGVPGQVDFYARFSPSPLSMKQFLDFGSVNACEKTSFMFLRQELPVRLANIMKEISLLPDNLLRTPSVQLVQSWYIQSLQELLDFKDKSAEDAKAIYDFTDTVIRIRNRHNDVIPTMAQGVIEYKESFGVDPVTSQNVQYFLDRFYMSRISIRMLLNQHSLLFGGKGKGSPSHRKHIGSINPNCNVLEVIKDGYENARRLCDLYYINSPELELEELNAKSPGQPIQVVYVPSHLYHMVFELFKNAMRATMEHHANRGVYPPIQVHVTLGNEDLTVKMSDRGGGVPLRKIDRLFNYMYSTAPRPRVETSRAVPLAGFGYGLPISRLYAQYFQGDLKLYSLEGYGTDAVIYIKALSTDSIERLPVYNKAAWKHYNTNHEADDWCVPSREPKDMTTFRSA
UniProt Q16288, whole entry, looked up: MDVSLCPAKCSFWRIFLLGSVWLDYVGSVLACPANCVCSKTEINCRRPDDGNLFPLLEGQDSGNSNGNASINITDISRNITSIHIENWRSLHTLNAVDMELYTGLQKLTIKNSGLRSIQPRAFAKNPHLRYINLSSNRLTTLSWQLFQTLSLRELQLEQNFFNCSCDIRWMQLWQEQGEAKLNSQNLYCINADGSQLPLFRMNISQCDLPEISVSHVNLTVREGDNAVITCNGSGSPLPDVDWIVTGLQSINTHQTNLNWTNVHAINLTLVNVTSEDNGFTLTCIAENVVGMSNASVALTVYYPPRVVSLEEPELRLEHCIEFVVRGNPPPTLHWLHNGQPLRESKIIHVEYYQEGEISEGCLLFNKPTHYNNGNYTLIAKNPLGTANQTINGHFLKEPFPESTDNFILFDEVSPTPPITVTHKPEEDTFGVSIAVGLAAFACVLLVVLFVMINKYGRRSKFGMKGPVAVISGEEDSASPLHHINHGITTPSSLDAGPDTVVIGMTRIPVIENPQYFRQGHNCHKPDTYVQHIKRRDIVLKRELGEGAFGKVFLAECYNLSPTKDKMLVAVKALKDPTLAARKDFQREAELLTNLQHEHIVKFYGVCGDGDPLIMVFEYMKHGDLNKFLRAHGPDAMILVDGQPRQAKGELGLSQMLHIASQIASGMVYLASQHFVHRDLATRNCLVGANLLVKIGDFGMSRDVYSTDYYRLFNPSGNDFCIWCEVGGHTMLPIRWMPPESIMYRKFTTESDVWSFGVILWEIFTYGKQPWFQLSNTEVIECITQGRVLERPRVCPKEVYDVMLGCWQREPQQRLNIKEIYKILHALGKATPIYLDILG

Experiments:
Assay in all cases: kinase-Nluc reporter destabilization hit call (1 = scored as downregulated) (binary); higher = compound decreases kinase abundance
Settings in all cases: K562, 2-18 h
MAPK1 = MAPK1 (UniProt P28482)
MAPK4 = MAPK4 (UniProt P31152)
MAPKAPK2 = MAPKAPK2 (UniProt P49137)
MKNK1 = MKNK1 (UniProt Q9BUB5)
NTRK2 = NTRK2 (UniProt Q16620)
PAK4 = PAK4 (UniProt O96013)
PBK = PBK (UniProt Q96KB5)
PDGFRB = PDGFRB (UniProt P09619)
PDK1 = PDK1 (UniProt Q15118)
NTRK3 = NTRK3 (UniProt Q16288)

Measured: kinase-Nluc reporter destabilization hit call

Cc1ccc(-n2nc(C(C)(C)C)cc2NC(=O)Nc2ccc(OCCN3CCOCC3)c3ccccc23)cc1 [Doramapimod]
inactive: MAPK1; 10 µM 0 | MAPK4; 10 µM 0 | MAPKAPK2; 10 µM 0 | MKNK1; 10 µM 0 | NTRK2; 10 µM 0 | PAK4; 10 µM 0 | PBK; 10 µM 0 | PDGFRB; 10 µM 0 | PDK1; 10 µM 0

CC(C)n1nc(-c2cc3cc(O)ccc3[nH]2)c2c(N)ncnc21 [Torkinib]
inactive: MAPK1; 2.5 µM 0 | MAPK4; 2.5 µM 0 | MAPKAPK2; 2.5 µM 0 | MKNK1; 2.5 µM 0 | NTRK3; 2.5 µM 0 | PAK4; 2.5 µM 0 | PBK; 2.5 µM 0 | PDGFRB; 2.5 µM 0 | PDK1; 2.5 µM 0

COc1cc2ncnc(Nc3cccc(Br)c3)c2cc1OC
inactive: MAPK1; 10 µM 0 | MAPK4; 10 µM 0 | MAPKAPK2; 10 µM 0 | MKNK1; 10 µM 0 | NTRK2; 10 µM 0 | NTRK3; 10 µM 0 | PAK4; 10 µM 0 | PBK; 10 µM 0 | PDK1; 10 µM 0

CC(=O)c1c(C)c2cnc(Nc3ccc(N4CCN(C(=O)CCCCCC(=O)N[C@H](C(=O)N5C[C@H](O)C[C@H]5C(=O)NCc5ccc(-c6scnc6C)cc5)C(C)(C)C)CC4)cn3)nc2n(C2CCCC2)c1=O
inactive: MAPK1; 2.5 µM 0 | MAPK4; 2.5 µM 0 | MAPKAPK2; 2.5 µM 0 | MKNK1; 2.5 µM 0 | NTRK2; 2.5 µM 0 | PAK4; 2.5 µM 0 | PBK; 2.5 µM 0 | PDK1; 2.5 µM 0

COc1cc2/c(=N/c3ccc(Br)cc3F)nc[nH]c2cc1OCC1CCN(C)CC1 [Vandetanib]
inactive: MAPK1; 2.5 µM 0 | MAPK4; 2.5 µM 0 | MAPKAPK2; 2.5 µM 0 | MKNK1; 2.5 µM 0 | NTRK2; 2.5 µM 0 | NTRK3; 2.5 µM 0 | PAK4; 2.5 µM 0 | PBK; 2.5 µM 0 | PDK1; 2.5 µM 0

Cc1cn(-c2cc(NC(=O)c3ccc(C)c(Nc4nccc(-c5cccnc5)n4)c3)cc(C(F)(F)F)c2)cn1 [Nilotinib]
inactive: MAPK1; 2.5 µM 0 | MAPK4; 2.5 µM 0 | MAPKAPK2; 2.5 µM 0 | MKNK1; 2.5 µM 0 | NTRK2; 2.5 µM 0 | PAK4; 2.5 µM 0 | PBK; 2.5 µM 0 | PDGFRB; 2.5 µM 0 | PDK1; 2.5 µM 0

CN1CCN(c2ccc3nc(-c4c(N)c5c(F)cccc5[nH]c4=O)[nH]c3c2)CC1 [Dovitinib (lactate)]
inactive: MAPK1; 2.5 µM 0 | MAPK4; 2.5 µM 0 | MAPKAPK2; 2.5 µM 0 | MKNK1; 2.5 µM 0 | NTRK2; 2.5 µM 0 | PAK4; 2.5 µM 0 | PBK; 2.5 µM 0 | PDGFRB; 2.5 µM 0 | PDK1; 2.5 µM 0

Cc1cc(C)n2c1C=C1C=CC(CCC(=O)NCCN3CCN(C/C=C/C(=O)N4CCCC(n5nc(-c6ccc(Oc7ccccc7)cc6)c6c(N)ncnc65)C4)CC3)=[N+]1[B-]2(F)F (centres undefined)
inactive: MAPK1; 2.5 µM 0 | MAPK4; 2.5 µM 0 | MAPKAPK2; 2.5 µM 0 | MKNK1; 2.5 µM 0 | NTRK2; 2.5 µM 0 | NTRK3; 2.5 µM 0 | PAK4; 2.5 µM 0 | PBK; 2.5 µM 0 | PDGFRB; 2.5 µM 0 | PDK1; 2.5 µM 0

An excerpt from above in order of formula weight, rising.
CN1CCN(c2ccc3nc(-c4c(N)c5c(F)cccc5[nH]c4=O)[nH]c3c2)CC1 [Dovitinib (lactate)]
inactive: MAPK1; 2.5 µM 0 | MAPK4; 2.5 µM 0 | MAPKAPK2; 2.5 µM 0 | MKNK1; 2.5 µM 0 | NTRK2; 2.5 µM 0 | PAK4; 2.5 µM 0 | PBK; 2.5 µM 0 | PDGFRB; 2.5 µM 0 | PDK1; 2.5 µM 0

COc1cc2/c(=N/c3ccc(Br)cc3F)nc[nH]c2cc1OCC1CCN(C)CC1 [Vandetanib]
inactive: MAPK1; 2.5 µM 0 | MAPK4; 2.5 µM 0 | MAPKAPK2; 2.5 µM 0 | MKNK1; 2.5 µM 0 | NTRK2; 2.5 µM 0 | NTRK3; 2.5 µM 0 | PAK4; 2.5 µM 0 | PBK; 2.5 µM 0 | PDK1; 2.5 µM 0

Cc1ccc(-n2nc(C(C)(C)C)cc2NC(=O)Nc2ccc(OCCN3CCOCC3)c3ccccc23)cc1 [Doramapimod]
inactive: MAPK1; 10 µM 0 | MAPK4; 10 µM 0 | MAPKAPK2; 10 µM 0 | MKNK1; 10 µM 0 | NTRK2; 10 µM 0 | PAK4; 10 µM 0 | PBK; 10 µM 0 | PDGFRB; 10 µM 0 | PDK1; 10 µM 0

Carrying on.

Cc1ccc(Nc2nccc(N(C)c3ccc4c(C)n(C)nc4c3)n2)cc1S(N)(=O)=O [Pazopanib (Hydrochloride)]
inactive: MAPK1; 10 µM 0 | MAPK4; 10 µM 0 | MAPKAPK2; 10 µM 0 | MKNK1; 10 µM 0 | NTRK2; 10 µM 0 | NTRK3; 10 µM 0 | PAK4; 10 µM 0 | PBK; 10 µM 0 | PDGFRB; 10 µM 0 | PDK1; 10 µM 0

CCOc1nc(NC(=O)Cc2cc(OC)ccc2OC)cc(N)c1C#N [JNK Inhibitor VIII]
inactive: MAPK1; 10 µM 0 | MAPK4; 10 µM 0 | MAPKAPK2; 10 µM 0 | MKNK1; 10 µM 0 | NTRK2; 10 µM 0 | NTRK3; 10 µM 0 | PAK4; 10 µM 0 | PBK; 10 µM 0 | PDGFRB; 10 µM 0 | PDK1; 10 µM 0

CNC(=O)c1cc(Oc2ccc(NC(=O)Nc3ccc(Cl)c(C(F)(F)F)c3)cc2)ccn1 [Sorafenib]
inactive: MAPK1; 2.5 µM 0 | MAPK4; 2.5 µM 0 | MAPKAPK2; 2.5 µM 0 | MKNK1; 2.5 µM 0 | NTRK2; 2.5 µM 0 | PAK4; 2.5 µM 0 | PBK; 2.5 µM 0 | PDGFRB; 2.5 µM 0 | PDK1; 2.5 µM 0

O=S(=O)(c1cccc2c(O)nccc12)N1CCCNCC1 [Hydroxyfasudil (hydrochloride)]
inactive: MAPK4; 10 µM 0 | MKNK1; 10 µM 0 | NTRK3; 10 µM 0 | PAK4; 10 µM 0 | PBK; 10 µM 0 | PDGFRB; 10 µM 0 | PDK1; 10 µM 0

Cc1cnc(Nc2ccc(OCCN3CCCC3)cc2)nc1Nc1cccc(S(=O)(=O)NC(C)(C)C)c1 [Fedratinib]
inactive: MAPK1; 2.5 µM 0 | MAPK4; 2.5 µM 0 | MAPKAPK2; 2.5 µM 0 | MKNK1; 2.5 µM 0 | NTRK2; 2.5 µM 0 | PAK4; 2.5 µM 0 | PBK; 2.5 µM 0 | PDGFRB; 2.5 µM 0 | PDK1; 2.5 µM 0

COc1cc(Nc2c(C#N)cnc3cc(OCCCN4CCN(C)CC4)c(OC)cc23)c(Cl)cc1Cl [Bosutinib]
inactive: MAPK1; 2.5 µM 0 | MAPK4; 2.5 µM 0 | MAPKAPK2; 2.5 µM 0 | MKNK1; 2.5 µM 0 | NTRK2; 2.5 µM 0 | PAK4; 2.5 µM 0 | PBK; 2.5 µM 0 | PDGFRB; 2.5 µM 0 | PDK1; 2.5 µM 0

COc1cc2ncnc(Nc3ccc(F)c(Cl)c3)c2cc1OCCCN1CCOCC1 [Gefitinib]
inactive: MAPK1; 10 µM 0 | MAPK4; 10 µM 0 | MAPKAPK2; 10 µM 0 | MKNK1; 10 µM 0 | NTRK2; 10 µM 0 | NTRK3; 10 µM 0 | PAK4; 10 µM 0 | PBK; 10 µM 0 | PDGFRB; 10 µM 0 | PDK1; 10 µM 0

CC(C)(C)n1nc(-c2ccc(Cl)cc2)c2c(N)ncnc21
inactive: MAPK1; 10 µM 0 | MAPK4; 10 µM 0 | MAPKAPK2; 10 µM 0 | MKNK1; 10 µM 0 | NTRK2; 10 µM 0 | NTRK3; 10 µM 0 | PAK4; 10 µM 0 | PBK; 10 µM 0 | PDK1; 10 µM 0

CCN(CC)CCNC(=O)c1c(C)[nH]c(/C=C2\C(=O)Nc3ccc(F)cc32)c1C [Sunitinib]
inactive: MAPK1; 2.5 µM 0 | MAPK4; 2.5 µM 0 | MAPKAPK2; 2.5 µM 0 | MKNK1; 2.5 µM 0 | NTRK2; 2.5 µM 0 | PAK4; 2.5 µM 0 | PBK; 2.5 µM 0 | PDGFRB; 2.5 µM 0 | PDK1; 2.5 µM 0
